Laboratory results: the supplement of paper PMC4807443
Counter-ions that a name gives are not always drawn. This is one part of the list. The numbers are fractions of the control, whatever unit the source prints. Most entries show no effect beyond the scatter of the controls.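 MIN6 is a mouse insulinoma beta-cell line that stably carries a lentiviral reporter in which the Pdx1 and Ins1 promoters each drive a nucleus-targeted fluorescent protein; cells were counted by automated imaging with a Hoechst nuclear stain. In the screen, a drug was a possible hit when its Ins1 promoter readout lay beyond two median absolute deviations from the DMSO controls while Pdx1 activity stayed near normal.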

The molecules below were run on MIN6 (assay: % Pdx1+ Ins1+ (double-positive, mature) cells relative to DMSO control (fold of DMSO control); higher = more mature Ins1 promoter-active cells). Settings: 8.5 µM; 48 h; glucose 5 mM.
In the case of `Nc1nc2n[nH]nc2c(=O)[nH]1` [Azaguanine-8], the “% Pdx1+ Ins1+” value is reported as 1.04. `CC(C)NCC(O)c1ccc2ccccc2c1` (stereo not drawn) [Pronethalol hydrochloride] was tested, and the “% Pdx1+ Ins1+” value was 0.974. With `C[C@H]1C[C@@H]2[C@H]([C@@H](O)C[C@@]3(C)[C@H]2CC[C@]3(O)C(=O)CO)[C@@]2(C)C=CC(=O)C=C12` [Methylprednisolone, 6-alpha] the “% Pdx1+ Ins1+” value was 1.02. `COc1cc([C@@H]2c3cc4c(cc3[C@@H](O[C@@H]3O[C@@H]5CO[C@@H](C)O[C@H]5[C@H](O)[C@H]3O)[C@H]3COC(=O)[C@H]23)OCO4)cc(OC)c1O` [Etoposide] was tested, and the “% Pdx1+ Ins1+” value was 0.541. In the case of `CCCNCC(O)COc1ccccc1C(=O)CCc1ccccc1` (stereo not drawn) [Propafenone hydrochloride], the “% Pdx1+ Ins1+” value is reported as 0.876. For `CC(=O)NC1[C@@H](O)OC(CO)[C@@H](O)[C@H]1O[C@H](C)C(=O)O` (stereo in doubt) [Muramic acid, N-acetyl], the “% Pdx1+ Ins1+” value was 0.977. With `CC[C@]12CCCN3CCc4c(n(c5ccccc45)[C@](O)(C(=O)OC)C1)[C@@H]32` [Epivincamine] the “% Pdx1+ Ins1+” value was 0.958. In the case of `CC(C)NC[C@@H](O)COc1cccc2ccccc12` [(R)-Propranolol hydrochloride], the “% Pdx1+ Ins1+” value is reported as 0.854. For `CCN(CC)CCc1nc(-c2ccccc2)no1` [Oxalamine citrate salt], the “% Pdx1+ Ins1+” value was 0.941. With `CNCC(O)c1ccc(OC(=O)C(C)(C)C)c(OC(=O)C(C)(C)C)c1` (stereo not drawn) [Dipivefrin hydrochloride] the “% Pdx1+ Ins1+” value was 0.84. With `CC(NCCC(c1ccccc1)c1ccccc1)c1ccccc1` (stereo not drawn) [Fendiline hydrochloride] the “% Pdx1+ Ins1+” value was 0.95. In the case of `Cc1c(N(C)CS(=O)(=O)O)c(=O)n(-c2ccccc2)n1C` [Dipyrone], the “% Pdx1+ Ins1+” value is reported as 0.923. In the case of `CN(C)[C@@H]1C(O)=C(C(=O)NCN2CCCC2)C(=O)[C@@]2(O)C(O)=C3C(=O)c4c(O)cccc4[C@@](C)(O)[C@H]3C[C@@H]12` [Rolitetracycline], the “% Pdx1+ Ins1+” value is reported as 1.08. In the case of `Nc1cc(C(Cl)=C(Cl)Cl)c(S(N)(=O)=O)cc1S(N)(=O)=O` [Clorsulon], the “% Pdx1+ Ins1+” value is reported as 0.843. In the case of `COc1c2occc2c(OC)c2c(=O)cc(C)oc12` [Khellin], the “% Pdx1+ Ins1+” value is reported as 1.12. For `NNc1nncc2ccccc12` [Hydralazine hydrochloride], the “% Pdx1+ Ins1+” value was 0.895. With `C[C@H](CCC(=O)O)[C@H]1CC[C@H]2[C@@H]3[C@H](O)C[C@@H]4C[C@H](O)CC[C@]4(C)[C@H]3CC[C@]12C` [Chenodiol] the “% Pdx1+ Ins1+” value was 0.956. With `CN1CCN(CCCN2c3ccccc3Sc3ccc(Cl)cc32)CC1` [Prochlorperazine dimaleate] the “% Pdx1+ Ins1+” value was 0.81. With `O=c1oc2ccccc2c(O)c1Cc1c(O)c2ccccc2oc1=O` [Dicumarol] the “% Pdx1+ Ins1+” value was 1.08. For `NC(=O)N/N=C/c1ccc([N+](=O)[O-])o1` [Nitrofural], the “% Pdx1+ Ins1+” value was 0.867. With `CN1CCCCC1CCN1c2ccccc2Sc2ccc([S+](C)[O-])cc21` (stereo not drawn) [Mesoridazine besylate] the “% Pdx1+ Ins1+” value was 1.04. For `CCCC(=O)Nc1ncnc2c1ncn2[C@@H]1O[C@@H]2COP(=O)(O)O[C@H]2[C@H]1OC(=O)CCC` [Bucladesine sodium salt], the “% Pdx1+ Ins1+” value was 1.15. `CCN1CCN(C(=O)N[C@@H](C(=O)N[C@@H]2C(=O)N3[C@@H]2SC(C)(C)[C@@H]3C(=O)O)c2ccccc2)C(=O)C1=O` [Piperacillin sodium salt] was tested, and the “% Pdx1+ Ins1+” value was 0.895. In the case of `CO[C@@H]1[C@@H](OC(N)=O)[C@@H](O)[C@H](Oc2ccc3c(O)c(NC(=O)c4ccc(O)c(CC=C(C)C)c4)c(=O)oc3c2C)OC1(C)C` [Novobiocin sodium salt], the “% Pdx1+ Ins1+” value is reported as 0.887. `Cn1nnnc1SCC1=C(C(=O)O)N2C(=O)[C@@H](NC(=O)[C@H](O)c3ccccc3)[C@H]2SC1` [Cefamandole sodium salt] was tested, and the “% Pdx1+ Ins1+” value was 0.771. `COc1ccc(NS(=O)(=O)c2ccc(N)cc2)nn1` [Sulfamethoxypyridazine] was tested, and the “% Pdx1+ Ins1+” value was 0.867. `Nc1ccc(C(=O)NCC(=O)O)cc1` [Aminohippuric acid] was tested, and the “% Pdx1+ Ins1+” value was 0.936. `CC1(C)OC(=O)NC1=O` [Dimethadione] was tested, and the “% Pdx1+ Ins1+” value was 0.928. With `N=C(N)NCC1COC2(CCCCC2)O1` (stereo not drawn) [Guanadrel sulfate] the “% Pdx1+ Ins1+” value was 0.856. For `Nc1ccc(S(=O)(=O)c2ccc(N)cc2)cc1` [Dapsone], the “% Pdx1+ Ins1+” value was 1.28. For `OC[C@H]1O[C@@H](Oc2ccc(O)cc2)[C@H](O)[C@@H](O)[C@@H]1O` [Arbutin], the “% Pdx1+ Ins1+” value was 0.919. `OCCN1CCN(CCCN2c3ccccc3Sc3ccc(Cl)cc32)CC1` [Perphenazine] was tested, and the “% Pdx1+ Ins1+” value was 1.14. With `COc1nc(C)nc(Cl)c1NC1=NCCN1` [Moxonidine] the “% Pdx1+ Ins1+” value was 0.716. In the case of `COc1cc2nc(N3CCN(C(=O)c4ccco4)CC3)nc(N)c2cc1OC` [Prazosin hydrochloride], the “% Pdx1+ Ins1+” value is reported as 0.97. `CCn1cc(C(=O)O)c(=O)c2cnc(N3CCNCC3)nc21` [Pipemidic acid] was tested, and the “% Pdx1+ Ins1+” value was 1.01. In the case of `O=c1c(O)c(-c2cc(O)c(O)c(O)c2)oc2cc(O)cc(O)c12` [Myricetin], the “% Pdx1+ Ins1+” value is reported as 0.858. `Cc1ccc(S(=O)(=O)NC(=O)NN2CC3CCCC3C2)cc1` (stereo not drawn) [Gliclazide] was tested, and the “% Pdx1+ Ins1+” value was 0.97. With `COc1ccc(-c2cc(=O)c3c(O)cc(O)cc3o2)cc1` [Acacetin] the “% Pdx1+ Ins1+” value was 0.825. With `CC(=O)N[C@@H](CC(=O)N[C@@H](CCC(=O)O)C(=O)O)C(=O)O` [Spaglumic acid] the “% Pdx1+ Ins1+” value was 0.979. `Nc1c(O)cccc1C(=O)CC(N)C(=O)O` (racemic) [Kynurenine, 3-hydroxy (R,S)] was tested, and the “% Pdx1+ Ins1+” value was 0.965. With `COc1ccc2cc(CCC(C)=O)ccc2c1` [Nabumetone] the “% Pdx1+ Ins1+” value was 0.98. With `CCn1cc(C(=O)O)c(=O)c2ccc(C)nc21` [Nalidixic acid sodium salt hydrate] the “% Pdx1+ Ins1+” value was 1.02. In the case of `C#CCN(C)Cc1ccccc1` [Pargyline hydrochloride], the “% Pdx1+ Ins1+” value is reported as 1.17. In the case of `CCN(CC)CCNC(=O)c1cc(S(C)(=O)=O)ccc1OC` [Tiapride hydrochloride], the “% Pdx1+ Ins1+” value is reported as 1.14. `O=C(CCCN1CC=C(n2c(=O)[nH]c3ccccc32)CC1)c1ccc(F)cc1` [Droperidol] was tested, and the “% Pdx1+ Ins1+” value was 0.98. `CC(C)N1CCN(c2ccc(OCC3COC(Cn4cncn4)(c4ccc(Cl)cc4Cl)O3)cc2)CC1` (stereo not drawn) [Terconazole] was tested, and the “% Pdx1+ Ins1+” value was 0.955. With `Cc1ncc([N+](=O)[O-])n1CCO` [Metronidazole] the “% Pdx1+ Ins1+” value was 1.12. `CCN(CC)CC#CCOC(=O)C(O)(c1ccccc1)C1CCCCC1` (stereo not drawn) [Oxybutynin chloride] was tested, and the “% Pdx1+ Ins1+” value was 1.12.
